Laboratory results: article PMC7272575
No constants are given. Whether binding was seen depends on the method and setting. Binding seen in cells or lysates may run through a third protein. A yes stands for co-enrichment or nearness to the bait. Other partners may have been found.

Biological target: T1, Hspa13 (mouse (endogenous in splenic B cells of C57BL/6 mice)) (UniProt Q8BM72)
T1 sequence: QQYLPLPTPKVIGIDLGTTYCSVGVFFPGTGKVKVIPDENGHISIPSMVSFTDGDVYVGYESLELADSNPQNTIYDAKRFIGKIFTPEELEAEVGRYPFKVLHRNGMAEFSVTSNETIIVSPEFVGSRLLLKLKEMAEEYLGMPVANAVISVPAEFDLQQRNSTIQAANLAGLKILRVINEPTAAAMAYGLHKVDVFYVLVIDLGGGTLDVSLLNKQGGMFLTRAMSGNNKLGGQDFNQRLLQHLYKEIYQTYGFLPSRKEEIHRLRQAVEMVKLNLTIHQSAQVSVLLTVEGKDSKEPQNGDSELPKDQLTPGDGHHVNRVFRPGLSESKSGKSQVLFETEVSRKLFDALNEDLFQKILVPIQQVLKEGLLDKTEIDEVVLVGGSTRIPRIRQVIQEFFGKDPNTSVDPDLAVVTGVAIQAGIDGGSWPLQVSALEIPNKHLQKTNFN
Test: affinity purification with mass spectrometry; lysate (IP Lysis Buffer) of mouse splenic B220+ B cells stimulated 3 days with 10 ug/ml LPS; anti-Hspa13 antibody and protein A-sepharose, control IgG; washed 6 times with PBS; bands cut from silver-stained SDS-PAGE gel, trypsin, LC-MS/MS

B1: Bcap31 (protein, UniProt Q61335 1-245)
chain: MSLQWTTVATFLYAEVFAVLLLCIPFISPKRWQKVFKSRLVELVVTYGNTFFVVLIVILVLLVIDAVREILKYDDVTEKVNLQNNPGAMEHFHMKLFRAQRNLYIAGFSLLLSFLLRRLVTLISQQATLLASNEAFKKQAESASEAAKKYMEENDQLKKGAAEDGDKLDIGNTEMKLEENKSLKNDLRKLKDELASTKKKLEKAENEALAMQKQSEGLTKEYDRLLEEHAKLQASVRGPSVKKEE
For B1, the binding was “binds”.
